PubChem BioAssay AID504786 – Drosophila RNAi Screening Center, 2011
Screen: 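Positive regulators of HIF-driven reporter output in Drosophila cells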 (primary screen). System: Drosophila S2 cells with a stable HIF luciferase reporter. Reagents: long dsRNA against Drosophila genes, about 0.2 µg dsRNA per well of a 384-well plate. Time to read-out: three days of knock-down, then 20 h of DFO before reading. Treatment: desferrioxamine (DFO) at 100 µM, an iron chelator that mimics hypoxia, for 20 h. Measured: 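HIF reporter luminescence in cells given 100 µM DFO for 20 h, using the mouse ldh-a hypoxia-response element, scored as per-plate z-scores; higher means greater loss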. Direction: z-score: higher = stronger loss of HIF reporter signal.
The screen tested about 21,000 reagents; below is a random part of those that have a named target and a result. 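Primary screen; positive scores mean lost reporter signal, so the sign may be inverted from the usual convention.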 Names joined by + are all predicted targets of the reagent. Not all columns of the deposit are shown.

For CG1671 [DRSC06617] the deposit lists z-score, replicate 1 = -0.2.
Silencing of speck [DRSC04608] gave: z-score, replicate 1 = -0.3.
For CG16782 [DRSC18118] the deposit lists z-score, replicate 1 = -0.3.
CG2871 [DRSC18230] gave z-score, replicate 1 = -0.3.
Knock-down of CG32432 [DRSC11703] resulted in: z-score, replicate 1 = 3.1.
After knock-down of CG32432 [DRSC11704], the record shows z-score, replicate 1 = 2.4.
Knock-down of CG32432 [DRSC11744] resulted in: z-score, replicate 1 = -0.3.
Depletion of mus304 [DRSC11372] came out at: z-score, replicate 1 = -0.3.
After knock-down of CG4575 (retired record) [DRSC18372], the record shows z-score, replicate 1 = -0.1.
With knock-down of Scgdelta [DRSC18544], the screen gave z-score, replicate 1 = -0.3.
After knock-down of CG13226 [DRSC06346], the screen gave z-score, replicate 1 = -0.1.
tho2 [DRSC00646] gave z-score, replicate 1 = -0.1.
CG1792 [DRSC15290] showed z-score, replicate 1 = -0.2.
After knock-down of CG6083 [DRSC10580], the record shows z-score, replicate 1 = -0.2.
With knock-down of CG15167 [DRSC02468], the screen gave z-score, replicate 1 = -0.2.
Knock-down of yellow-d [DRSC04589] resulted in: z-score, replicate 1 = -0.2.
After knock-down of CG31174 [DRSC13518], the screen gave z-score, replicate 1 = -0.1.
CG34310 [DRSC00943] gave z-score, replicate 1 = 0.4.
Silencing of lmgA + lmgB [DRSC03566] resulted in: z-score, replicate 1 = -0.2.

Entries above whose target name begins with S or s:
speck [DRSC04608] | z-score, replicate 1: -0.3
Scgdelta [DRSC18544] | z-score, replicate 1: -0.3

Continued.
For CG7988 [DRSC16358], the values are z-score, replicate 1 = 0.1.
CG5079 [DRSC15713] scored z-score, replicate 1 = 0.2.
With knock-down of Ten-m [DRSC11664] the results were z-score, replicate 1 = -0.3.
With knock-down of Ten-m [DRSC11882], the screen gave z-score, replicate 1 = -0.3.
For CG32407 [DRSC09789], the entry reads z-score, replicate 1 = -0.2.
CG7744 [DRSC07036] scored z-score, replicate 1 = -0.2.
Silencing of Osi5 [DRSC12276] resulted in: z-score, replicate 1 = -0.1.
Depletion of spdo [DRSC13988] resulted in: z-score, replicate 1 = -0.6.
For CG33268 [DRSC10143], the values are z-score, replicate 1 = -0.1.
For CG9021 [DRSC03128] the deposit lists z-score, replicate 1 = -0.4.
After knock-down of Ir67b [DRSC09876], the record shows z-score, replicate 1 = -0.2.
CG5188 [DRSC02826] gave z-score, replicate 1 = -0.1.
With knock-down of Hrd3 [DRSC14156], the record shows z-score, replicate 1 = -0.4.
For CG2127 [DRSC06821], the entry reads z-score, replicate 1 = -0.3.
CG14989 [DRSC08448] gave z-score, replicate 1 = 0.
Against dpr18 [DRSC19606], the values are z-score, replicate 1 = -0.3.
Against betaTub56D [DRSC07583] the deposit lists z-score, replicate 1 = 0.8.
With knock-down of CG15185 [DRSC12565] the results were z-score, replicate 1 = -0.3.
For CG31528 [DRSC12003], the values are z-score, replicate 1 = 0.1.
Knock-down of CG6511 [DRSC10656] resulted in: z-score, replicate 1 = 0.
Ogdh [DRSC09854] gave z-score, replicate 1 = -0.3.
Against Ogdh [DRSC09855] the deposit lists z-score, replicate 1 = -0.3.
